# Laboratory results: PubChem BioAssay AID1224831 (NIAID, 2016)
# Screen: 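Confirming genome-wide hits on LPS-triggered TNF-alpha induction with independent siRNA sequences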 (follow-up of hits)
# System: human THP-1 B5 monocytic leukaemia cells carrying a TNF promoter luciferase reporter, made macrophage-like with PMA
# Reagent: single siRNA against human genes, 50 nM
# Duration: about 68 h of knock-down, then 4 h LPS
# Conditions: LPS (Salmonella minnesota, TLR-grade) at 10 ng/ml for 4 h; PMA 5 ng/ml present during knock-down
# Read-out: 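Firefly to renilla luciferase ratio of a TNF promoter reporter after 4 h LPS, scaled to plate median, turned into robust z-score, averaged over replicates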
# Reading the numbers: TNF reporter z-score: higher = stronger LPS-induced TNF reporter signal; z-score, median over gene's siRNAs: higher = stronger TNF reporter signal across the gene's siRNAs
# Hit rule: 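Active when the replicate mean z-score is about -1 or lower, or about 1.5 or higher; lowered and raised TNF reporter signal both count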
# Meaning of the calls: active = changed TNF reporter (either direction); inactive = little change
# In all, the deposit lists about 3,500 reagents; shown is a part drawn at random. In the full data, 731 (21%) are marked active. 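Active means either lowered or raised reporter signal; the gene-median score did not drive the per-siRNA calls.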 A number with no mark means an inactive call. Reagents against one gene are numbered here.
Gene,reagent no.,"TNF reporter z-score, replicate mean","z-score, median over gene's siRNAs"
PLOD3,1,-0.01,0.08
PLOD3,2,-0.24,0.08
PLOD3,3,0.17,0.08
PLOD3,4,-0.75,0.08
PLOD3,5,1.09,0.08
PLOD3,6,0.29,0.08
MTBP,1,3.67 (active),0.76
MTBP,2,1.04,0.76
MTBP,3,-0.78,0.76
MTBP,4,0.47,0.76
MTBP,5,0.48,0.76
MTBP,6,1.07,0.76
POSTN,1,-0.18,0.475
POSTN,2,0.03,0.475
POSTN,3,0.93,0.475
POSTN,4,13.8 (active),0.475
POSTN,5,0.92,0.475
POSTN,6,-0.48,0.475
DTX1,1,0.43,0.35
DTX1,2,0.09,0.35
DTX1,3,0.3,0.35
DTX1,4,-0.01,0.35
DTX1,5,0.4,0.35
DTX1,6,1.88 (active),0.35
KLHL41,1,0.88,0.485
KLHL41,2,0.17,0.485
KLHL41,3,0.8,0.485
KLHL41,4,-0.27,0.485
KLHL41,5,0.9,0.485
KLHL41,6,-0.09,0.485
HRH2,1,0.73,0.51
HRH2,2,-0.98,0.51
HRH2,3,0.36,0.51
HRH2,4,0.58,0.51
HRH2,5,0.44,0.51
HRH2,6,0.66,0.51

Laid out differently: entries from further up
KLHL41 #6 → TNF reporter z-score, replicate mean = -0.09; z-score, median over gene's siRNAs = 0.485
HRH2 #1 → TNF reporter z-score, replicate mean = 0.73; z-score, median over gene's siRNAs = 0.51
HRH2 #2 → TNF reporter z-score, replicate mean = -0.98; z-score, median over gene's siRNAs = 0.51
HRH2 #3 → TNF reporter z-score, replicate mean = 0.36; z-score, median over gene's siRNAs = 0.51
